PubChem BioAssay AID743458 – Peter MacCallum Cancer Centre | 2014
This is a random part of about 1,800 deposited reagents. Of all reagents, 732 (41%) are marked active. 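Calls are per siRNA reagent; a gene was deemed confirmed only if most of its four siRNAs scored.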

Test: 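Retest earlier hits with independent siRNAs per gene for restoring vorinostat sensitivity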 (follow-up of hits)
System: human HCT116-VR colon cancer cells made resistant to vorinostat
Reagents: single siRNA or pool against human genes, 25 nM per single siRNA
Time to read-out: about 72 h after transfection, including 24 h of drug
Treatment: vorinostat, 2.5 µM final, for 24 h
Read-out: 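Cell viability by fluorescence and apoptosis by caspase 3/7 luminescence under vorinostat, background-corrected, averaged across two plate copies and given as fold change versus mock transfection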
Reading the numbers: viability relative to mock: higher = more living cells than mock; caspase activity relative to mock: higher = more apoptosis than mock
Call rule: 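Active means a reduced-viability or caspase-activation class, anything else inactive; classes could only be given to wells that looked healthy when left untreated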

gene	PubChem SID	viability relative to mock	caspase activity relative to mock	viability hit class	caspase hit class	activity call
RNF40	SID134237889	0.94	1.57	no change	no change	inactive
RNF40	SID134237890	0.79	2.22	no change	no change	inactive
RNF40	SID134237891	0.97	2.75	no change	caspase activation	active
RNF40	SID134237892	0.96	1.38	no change	no change	inactive
BNIP2	SID134254249	1.09	1	no change	no change	inactive
BNIP2	SID134254250	0.53	2.17	reduced viability	no change	active
BNIP2	SID134254251	0.92	3.62	no change	caspase activation	active
BNIP2	SID134254252	0.8	2.15	no change	no change	inactive
C1RL	SID134240749	0.83	3.21	no change	caspase activation	active
C1RL	SID134240750	0.46	1.38	reduced viability	no change	active
C1RL	SID134240751	0.76	1.03	no change	no change	inactive
C1RL	SID134240752	0.84	2.5	no change	no change	inactive
NOP58	SID134277213	0.54	1.8	reduced viability	no change	active
NOP58	SID134277214	0.62	0.96	no change	no change	inactive
NOP58	SID134277215	0.98	0.98	no change	no change	inactive
NOP58	SID134277216	0.76	0.88	no change	no change	inactive
GABRB2	SID134236077	0.43	2.48	reduced viability	no change	active
GABRB2	SID134236078	0.79	1.14	no change	no change	inactive
GABRB2	SID134236079	0.58	1.38	no change	no change	inactive
GABRB2	SID134236080	0.62	1.57	no change	no change	inactive
SPAG1	SID134231293	0.9	1.04	no change	no change	inactive
SPAG1	SID134231294	0.82	1.04	no change	no change	inactive
SPAG1	SID134231295	0.68	0.93	no change	no change	inactive
SPAG1	SID134231296	0.12	1.37	no change	no change	inactive
OR10V1	SID134309357	0.9	1.26	no change	no change	inactive
OR10V1	SID134309358	0.99	1.09	no change	no change	inactive
OR10V1	SID134309359	0.81	1.53	no change	no change	inactive
OR10V1	SID134309360	0.88	1.36	no change	no change	inactive
FXYD7	SID134258905	1.04	1.1	no change	no change	inactive
FXYD7	SID134258907	0.68	2.4	no change	no change	inactive
FXYD7	SID135613962	0.92	1.22	no change	no change	inactive
DNAJA2	SID134255321	1.04	1.19	no change	no change	inactive
DNAJA2	SID134255322	0.12	2.11	reduced viability	no change	active
DNAJA2	SID134255323	0.88	1.48	no change	no change	inactive
DNAJA2	SID134255324	0.92	0.84	no change	no change	inactive
TOX4	SID134289078	0.84	3.99	no change	caspase activation	active
TOX4	SID134289079	1.01	1.24	no change	no change	inactive
TOX4	SID134289080	0.83	3.36	no change	caspase activation	active
TOX4	SID135616499	0.96	2.38	no change	no change	inactive
ALMS1	SID152148123	0.31	1.15	reduced viability	no change	active
ALMS1	SID152148961	1	1.07	no change	no change	inactive
ALMS1	SID152153891	0.61	1.82	no change	no change	inactive
ALMS1	SID152156136	0.8	1.88	no change	no change	inactive
STN1	SID134270561	0.66	1.51	no change	no change	inactive
STN1	SID134270562	0.18	3.51	no change	no change	inactive
STN1	SID134270563	0.7	5.21	no change	caspase activation	active
STN1	SID134270564	0.76	3.88	no change	caspase activation	active
CCNK	SID134302233	0.68	2.19	no change	no change	inactive
CCNK	SID134302234	0.53	3.58	reduced viability	caspase activation	active
CCNK	SID134302235	0.5	5.8	reduced viability	caspase activation	active
CCNK	SID134302236	0.87	1.3	no change	no change	inactive
CDC25C	SID56475607	0.3	1.38	reduced viability	no change	active
CDC25C	SID56475608	0.94	0.89	no change	no change	inactive
CDC25C	SID56475609	0.87	0.86	no change	no change	inactive
CDC25C	SID56475610	0.74	1.25	no change	no change	inactive
ADCY7	SID134237633	0.98	1.73	no change	no change	inactive
ADCY7	SID134237634	0.6	3.32	no change	caspase activation	active
ADCY7	SID134237635	0.18	1.54	no change	no change	inactive
ADCY7	SID134237636	0.77	2.54	no change	no change	inactive

Look-ups from above:
Value of ALMS1 [SID152148123] under “caspase hit class”: no change
Entry for FXYD7 [SID134258905] in “activity call”: inactive
Result for ALMS1 [SID152156136] under “caspase activity relative to mock”: 1.88
Result for ALMS1 [SID152153891] under “caspase activity relative to mock”: 1.82
For “activity call”, GABRB2 [SID134236077] has active
Result for TOX4 [SID134289078] under “viability hit class”: no change
